Source: publication PMC6945068
Results are given in words; binding and its absence hold for the method and conditions named. In cells and extracts the contact can be indirect. Where a sequence is shown, tags or fusion partners need not be part of it.

Target: T1, MBP-fused Apc1-loop^500 wild type (residues 515-584 of Xenopus tropicalis Apc1) (Xenopus tropicalis) (UniProt Q08D52)
T1 sequence: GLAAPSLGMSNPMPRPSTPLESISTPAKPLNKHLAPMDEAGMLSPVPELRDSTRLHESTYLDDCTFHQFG
Experiment: pull-down; MBP-fused Apc1-loop^500 fragments on amylose beads; ^35S-labelled in vitro-translated PP2A B subunits in anaphase extract (interphase extract with cyclin B∆167), 23°C, 60 min; washes in XB^CSF with 0.01% NP-40; autoradiography; only the target purified

B1: ^35S-labelled in vitro-translated Flag-B55δ (X. laevis PP2A regulatory B subunit) (protein, UniProt Q7ZX64 1-447)
chain: MAGVGGGNDFQWCFSQVKGAIDEDVAEADIISTVEFNCSGELLATGDKGGRVVIFQREQENKSRPHSRGEYNVYSTFQSHEPEFDYLKSLEIEEKINKIRWLPQQNAANFLLSTNDKTIKLWKISERDKRVEGYNLKDDDGRLRDPFRITSLRVPILKPMDLMVEASPRRIFANAHTYHINSISVNSDHQTYLSADDLRVNLWHLEITDRSFNIVDIKPANMEELTEVITAAEFHPHHCHMFVYSSSKGTIRLCDMRDAALCDRHSKFFEEPEDPSSRSFFSEIISSISDVKFSHSGRYMMTRDYLSVKVWDLNMESRPVETYQVHEYLRSKLCSLYENDCIFDKFECCWNGSDSSIMTGSYNNFFRMFDRNTRRDITLEASRESSKPRATLKPRKVCTGGKRKKDEINVDSLDFNKKILHTAWHPTDNIIAVAATNNLYIFQDKVN
modifications: [^35S]methionine label
binding: no binding
